Measurements taken from the supplement of paper PMC4604168 (melanoma cell lines).
This is one part of the list. Repeats are few or missing, and single values can be far off.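 Cells were imaged in 1,536-well plates, and nuclei stained with an antibody against cleaved PARP were counted against all DNA-stained nuclei to give the apoptosis fraction. Screening doses were chosen to leave most cells alive, and resting and induced cleaved-PARP levels differ strongly between cell lines.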

What was measured:
Test in all cases: cleaved PARP positive nuclei fraction relative to DMSO control; melanoma cells; higher = more apoptosis
Settings in all cases: library dose: low library concentration; 72 h
501Mel = tested on: 501Mel
A101D = tested on: A101D
A2058 = tested on: A2058
A375 = tested on: A375
C32 = tested on: C32
CBRC013 = tested on: CBRC013 (line from a melanoma biopsy)
CBRC014 = tested on: CBRC014 (line from a melanoma biopsy)
CBRC016 = tested on: CBRC016 (line from a melanoma biopsy)
CBRC017 = tested on: CBRC017 (line from a melanoma biopsy)
CBRC034 = tested on: CBRC034 (line from a melanoma biopsy)
COLO792 = tested on: COLO792
COLO800 = tested on: COLO800
COLO829 = tested on: COLO829
G361 = tested on: G361
IPC-298 = tested on: IPC-298
IST-MEL1 = tested on: IST-MEL1
LB2518-MEL = tested on: LB2518-MEL
LOXIMVI = tested on: LOXIMVI

Structure (SMILES) | cleaved PARP positive nuclei fraction (501Mel) | cleaved PARP positive nuclei fraction (A101D) | cleaved PARP positive nuclei fraction (A2058) | cleaved PARP positive nuclei fraction (A375) | cleaved PARP positive nuclei fraction (C32) | cleaved PARP positive nuclei fraction (CBRC013) | cleaved PARP positive nuclei fraction (CBRC014) | cleaved PARP positive nuclei fraction (CBRC016) | cleaved PARP positive nuclei fraction (CBRC017) | cleaved PARP positive nuclei fraction (CBRC034) | cleaved PARP positive nuclei fraction (COLO792) | cleaved PARP positive nuclei fraction (COLO800) | cleaved PARP positive nuclei fraction (COLO829) | cleaved PARP positive nuclei fraction (G361) | cleaved PARP positive nuclei fraction (IPC-298) | cleaved PARP positive nuclei fraction (IST-MEL1) | cleaved PARP positive nuclei fraction (LB2518-MEL) | cleaved PARP positive nuclei fraction (LOXIMVI)
Cc1cc(N2CCOCC2)cc2[nH]c(-c3c(NC[C@@H](O)c4cccc(Cl)c4)cc[nH]c3=O)nc12 + Cn1cc(/C=C2\C(=O)Nc3cccnc32)c2ccccc21 [GW441756] (first compound 0.2 µM, partner dose 0.4 µM) | 64.9% | 37.9% | 275% | 104% | 67.8% | 182% | 91.6% | 37.6% | 81.3% | 94.2% | 154% | 148% | 32.8% | 146% | 86.8% | 75.6% | 109% | 27.4%
C[C@@H]1CCN(C(=O)CC#N)C[C@@H]1N(C)c1ncnc2[nH]ccc12 + O=S(=O)(c1ccccc1)N(CC(F)(F)F)c1ccc(C(O)(C(F)(F)F)C(F)(F)F)cc1 [T0901317] (first compound 1 µM, partner dose 1.4 µM) | 87.7% | 117% | 23.2% | 52.7% | 70.6% | 69.5% | 113% | 32.1% | 92.2% | 65.7% | 92.3% | 141% | 275% | 44.5% | 66.9% | 84.8% | 87.6% | 34.8%
Nc1cccc2c1CN(C1CCC(=O)NC1=O)C2=O (configuration not stated) [lenalidomide] + COc1cc(N2CCC(N3CCN(C)CC3)CC2)ccc1Nc1ncc(Cl)c(Nc2ccccc2S(=O)(=O)C(C)C)n1 [NVP-TAE684] (first compound 1 µM, partner dose 0.08 µM) | 103% | 172% | 141% | 60% | 222% | 190% | 92.1% | 58.4% | 82% | 140% | 186% | 142% | 71.6% | 55.7% | 191% | 27.3% | 74.4% | 101%
Cn1cncc1[C@@](N)(c1ccc(Cl)cc1)c1ccc2c(c1)c(-c1cccc(Cl)c1)cc(=O)n2C [tipifarnib] + Oc1cc(-c2nc(-c3ccccc3)[nH]c2-c2ccncc2)ccc1Cl [L779450] (first compound 0.01 µM, partner dose 0.2 µM) | 90.9% | 86.6% | 99.1% | 174% | 90.5% | 630% | 114% | 26% | 96.7% | 55% | 69.4% | 123% | 44.1% | 129% | 146% | 90.7% | 283% | 47.8%
CC1(C)NC(=O)N(c2ccc([N+](=O)[O-])c(C(F)(F)F)c2)C1=O [nilutamide] + Oc1cc(-c2nc(-c3ccccc3)[nH]c2-c2ccncc2)ccc1Cl [L779450] (first compound 1 µM, partner dose 0.2 µM) | 229% | 107% | 86.2% | 98.2% | 226% | 210% | 102% | 98% | 79.7% | 73.3% | 114% | 147% | 151% | 109% | 142% | 60% | 105% | 58.8%
Cn1cncc1[C@@](N)(c1ccc(Cl)cc1)c1ccc2c(c1)c(-c1cccc(Cl)c1)cc(=O)n2C [tipifarnib] + O=C(Nc1ccccc1)c1cc([N+](=O)[O-])ccc1Cl [GW9662] (first compound 0.01 µM, partner dose 2 µM) | 98% | 138% | 102% | 188% | 94.7% | 201% | 109% | 153% | 102% | 48.8% | 122% | 85% | 127% | 91.8% | 408% | 84.6% | 248% | 78.8%
NC(=O)Nc1cc(-c2cccc(F)c2)sc1C(=O)N[C@H]1CCCNC1 + COc1cc2ncnc(Nc3ccc(Oc4ccccc4)cc3)c2cc1OC [SrcI1] (first compound 0.02 µM, partner dose 2 µM) | 231% | 103% | 98% | 510% | 179% | 89.9% | 197% | 123% | 76.8% | 104% | 135% | 105% | 178% | 91.5% | 80.6% | 96.3% | 63.8% | 85.5%
Cn1cncc1[C@@](N)(c1ccc(Cl)cc1)c1ccc2c(c1)c(-c1cccc(Cl)c1)cc(=O)n2C [tipifarnib] + O=S(=O)(c1ccccc1)N(CC(F)(F)F)c1ccc(C(O)(C(F)(F)F)C(F)(F)F)cc1 [T0901317] (first compound 0.01 µM, partner dose 1.4 µM) | 128% | 321% | 116% | 298% | 45% | 107% | 88.2% | 165% | 91.1% | 211% | 69.3% | 121% | 116% | 162% | 153% | 116% | 49.7% | 60.4%
O=C(Nc1cccc(Cl)c1)Nc1ncc(CCNc2ncnc3ccsc23)s1 + O=C1NC(=O)/C(=C/c2ccc(-c3ccc(F)cc3O)o2)S1 [AS252424] (first compound 0.0008 µM, partner dose 1 µM) | 75.9% | 115% | 85.9% | 233% | 91.1% | 269% | 78.4% | 62.6% | 92.2% | 57.3% | 15.9% | 105% | 83% | 83.5% | 167% | 41.7% | 103% | 33.3%
COc1cc(Nc2ncc(F)c(Nc3ccc4c(n3)NC(=O)C(C)(C)O4)n2)cc(OC)c1OC [Tamatinib] + CCN(CC)CCCCNc1ncc2cc(-c3cc(OC)cc(OC)c3)c(NC(=O)NC(C)(C)C)nc2n1 [PD173074] (first compound 0.4 µM, partner dose 0.1 µM) | 93.6% | 62.5% | 110% | 71% | 69.3% | 62.5% | 90.5% | 17.3% | 102% | 92.5% | 150% | 178% | 107% | 81.6% | 72.4% | 138% | 100% | 43%
OCCn1cc(-c2cnc3nnn(Cc4ccc5ncccc5c4)c3n2)cn1 + Oc1cc(-c2nc(-c3ccccc3)[nH]c2-c2ccncc2)ccc1Cl [L779450] (first compound 1 µM, partner dose 0.2 µM) | 124% | 114% | 133% | 47.4% | 249% | 65.6% | 192% | 71.2% | 101% | 111% | 182% | 88.4% | 103% | 127% | 48.2% | 56.6% | 146% | 17.7%
CC1(C)NC(=O)N(c2ccc([N+](=O)[O-])c(C(F)(F)F)c2)C1=O [nilutamide] + CCc1ccc(CCOc2ccc(CC3SC(=O)NC3=O)cc2)nc1 [pioglitazone] (first compound 1 µM, partner dose 2 µM) | 80.4% | 110% | 101% | 156% | 76.6% | 46.4% | 105% | 99.6% | 73.7% | 93% | 112% | 115% | 62.3% | 149% | 81.9% | 110% | 82% | 68.4%
C#Cc1cccc(Nc2ncnc3cc(OCCOC)c(OCCOC)cc23)c1 [erlotinib] + CCCCCCCCCCCC1=C(O)C(=O)C=C(O)C1=O [Embelin] (first compound 0.8 µM, partner dose 1.2 µM) | 33.7% | 219% | 161% | 166% | 48.4% | 144% | 96.2% | 71.8% | 77.2% | 101% | 51.7% | 117% | 129% | 71.6% | 85.7% | 82% | 83.2% | 57.6%
CC(C)(C)c1cnc(CSc2cnc(NC(=O)C3CCNCC3)s2)o1 + CCc1ccc(CCOc2ccc(CC3SC(=O)NC3=O)cc2)nc1 [pioglitazone] (first compound 0.01 µM, partner dose 2 µM) | 72% | 34.6% | 87.8% | 116% | 194% | 51.8% | 103% | 82.8% | 85.9% | 82.5% | 119% | 93.7% | 194% | 25.1% | 25.1% | 64% | 77.8% | 55.7%
Cn1c(Nc2ccc(C(F)(F)F)cc2)nc2cc(Oc3ccnc(-c4ncc(C(F)(F)F)[nH]4)c3)ccc21 + O=C(Nc1ccccc1)c1cc([N+](=O)[O-])ccc1Cl [GW9662] (first compound 0.08 µM, partner dose 2 µM) | 251% | 231% | 133% | 214% | 143% | 135% | 114% | 109% | 88.2% | 101% | 265% | 95% | 141% | 209% | 615% | 42.7% | 135% | 121%
Cn1cncc1[C@@](N)(c1ccc(Cl)cc1)c1ccc2c(c1)c(-c1cccc(Cl)c1)cc(=O)n2C [tipifarnib] + Oc1nc(-c2ccc(C(F)(F)F)cc2)nc2c1CSCC2 [XAV939] (first compound 0.01 µM, partner dose 2 µM) | 78.7% | 124% | 102% | 237% | 53.3% | 412% | 103% | 61.1% | 86.8% | 40.5% | 72.5% | 143% | 134% | 95.1% | 43.6% | 259% | 202% | 40.2%
Cn1nnc2c(C(N)=O)ncn2c1=O [temozolomide] + O=C1NC(=O)/C(=C/c2ccc(-c3ccc(F)cc3O)o2)S1 [AS252424] (first compound 2 µM, partner dose 1 µM) | 33.2% | 136% | 81.3% | 334% | 110% | 45.4% | 103% | 85.6% | 78.3% | 53.7% | 108% | 82.4% | 134% | 130% | 368% | 61.6% | 363% | 135%
Cn1nnc2c(C(N)=O)ncn2c1=O [temozolomide] + COC(=O)c1sccc1S(=O)(=O)Nc1ccc(Nc2ccccc2)cc1OC [GSK0660] (first compound 2 µM, partner dose 1 µM) | 65% | 75.4% | 53.2% | 70.2% | 82.3% | 40% | 146% | 90.5% | 216% | 81.3% | 102% | 89.3% | 57.3% | 57.1% | 174% | 57.7% | 147% | 21.1%
Nc1cccc2c1CN(C1CCC(=O)NC1=O)C2=O (configuration not stated) [lenalidomide] + COc1cc2ncnc(Nc3ccc(Oc4ccccc4)cc3)c2cc1OC [SrcI1] (first compound 1 µM, partner dose 2 µM) | 240% | 154% | 293% | 81.5% | 54.1% | 94.8% | 89.6% | 106% | 101% | 85.5% | 65.5% | 71% | 153% | 120% | 111% | 35.4% | 79.2% | 32.8%

An excerpt from further up, as a working copy:
Structure (SMILES) | cleaved PARP positive nuclei fraction (501Mel) | cleaved PARP positive nuclei fraction (A101D) | cleaved PARP positive nuclei fraction (A2058) | cleaved PARP positive nuclei fraction (A375) | cleaved PARP positive nuclei fraction (C32) | cleaved PARP positive nuclei fraction (CBRC013) | cleaved PARP positive nuclei fraction (CBRC014) | cleaved PARP positive nuclei fraction (CBRC016) | cleaved PARP positive nuclei fraction (CBRC017) | cleaved PARP positive nuclei fraction (CBRC034) | cleaved PARP positive nuclei fraction (COLO792) | cleaved PARP positive nuclei fraction (COLO800) | cleaved PARP positive nuclei fraction (COLO829) | cleaved PARP positive nuclei fraction (G361) | cleaved PARP positive nuclei fraction (IPC-298) | cleaved PARP positive nuclei fraction (IST-MEL1) | cleaved PARP positive nuclei fraction (LB2518-MEL) | cleaved PARP positive nuclei fraction (LOXIMVI)
NC(=O)Nc1cc(-c2cccc(F)c2)sc1C(=O)N[C@H]1CCCNC1 + COc1cc2ncnc(Nc3ccc(Oc4ccccc4)cc3)c2cc1OC [SrcI1] (first compound 0.02 µM, partner dose 2 µM) | 231% | 103% | 98% | 510% | 179% | 89.9% | 197% | 123% | 76.8% | 104% | 135% | 105% | 178% | 91.5% | 80.6% | 96.3% | 63.8% | 85.5%
Cn1cncc1[C@@](N)(c1ccc(Cl)cc1)c1ccc2c(c1)c(-c1cccc(Cl)c1)cc(=O)n2C [tipifarnib] + O=S(=O)(c1ccccc1)N(CC(F)(F)F)c1ccc(C(O)(C(F)(F)F)C(F)(F)F)cc1 [T0901317] (first compound 0.01 µM, partner dose 1.4 µM) | 128% | 321% | 116% | 298% | 45% | 107% | 88.2% | 165% | 91.1% | 211% | 69.3% | 121% | 116% | 162% | 153% | 116% | 49.7% | 60.4%
O=C(Nc1cccc(Cl)c1)Nc1ncc(CCNc2ncnc3ccsc23)s1 + O=C1NC(=O)/C(=C/c2ccc(-c3ccc(F)cc3O)o2)S1 [AS252424] (first compound 0.0008 µM, partner dose 1 µM) | 75.9% | 115% | 85.9% | 233% | 91.1% | 269% | 78.4% | 62.6% | 92.2% | 57.3% | 15.9% | 105% | 83% | 83.5% | 167% | 41.7% | 103% | 33.3%
COc1cc(Nc2ncc(F)c(Nc3ccc4c(n3)NC(=O)C(C)(C)O4)n2)cc(OC)c1OC [Tamatinib] + CCN(CC)CCCCNc1ncc2cc(-c3cc(OC)cc(OC)c3)c(NC(=O)NC(C)(C)C)nc2n1 [PD173074] (first compound 0.4 µM, partner dose 0.1 µM) | 93.6% | 62.5% | 110% | 71% | 69.3% | 62.5% | 90.5% | 17.3% | 102% | 92.5% | 150% | 178% | 107% | 81.6% | 72.4% | 138% | 100% | 43%
OCCn1cc(-c2cnc3nnn(Cc4ccc5ncccc5c4)c3n2)cn1 + Oc1cc(-c2nc(-c3ccccc3)[nH]c2-c2ccncc2)ccc1Cl [L779450] (first compound 1 µM, partner dose 0.2 µM) | 124% | 114% | 133% | 47.4% | 249% | 65.6% | 192% | 71.2% | 101% | 111% | 182% | 88.4% | 103% | 127% | 48.2% | 56.6% | 146% | 17.7%
